Results are given in words; binding and its absence hold for the method and conditions named.
Key:
[1] = target: human Claudin18.2 on cells (human) (UniProt P56856); test: flow cytometry on DANG-hCLDN18.2 cells, relative MFI (fold)
[2] = target: human Claudin18.2 on cells (human) (UniProt P56856); test: flow cytometry on DAN-G-hCLDN18.2 cells

Chains of the proteins cited; added tags and fusions are not shown. Lines headed by an entry give the natural chain unless they say otherwise; changes in a name come on top. A line that says so, or that is headed by a name, gives the form on record, which may keep a tag or linker.
human Claudin18.2 on cells (P56856, form named): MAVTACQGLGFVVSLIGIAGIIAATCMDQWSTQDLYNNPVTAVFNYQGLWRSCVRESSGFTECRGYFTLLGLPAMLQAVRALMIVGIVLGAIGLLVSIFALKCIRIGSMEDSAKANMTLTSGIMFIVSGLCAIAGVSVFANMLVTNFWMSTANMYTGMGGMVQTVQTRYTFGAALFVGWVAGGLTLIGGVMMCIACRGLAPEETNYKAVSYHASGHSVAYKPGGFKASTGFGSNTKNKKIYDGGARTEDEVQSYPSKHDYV

B1: IEX019-06 (SYN-IgG1-Ex) (antibody, V domains shown)
VH: QVQLVQSGAEVKKPGASVKVSCQASGYRFSNFVIHWVRQAPGQRFEWMGWINPYNGNKEFSAKFQDRVTFTADTSANTAYMELRSLRSADTAVYYCARVGPYSWDDSPQDNYYMDVWGKGTTVIVSS
VL: EIVLTQSPGTLSLSPGERATFSCRSSHSIRSRRVAWYQHKPGQAPRLVIHGVSNRASGISDRFSGSGSGTDFTLTITRVEPEDFALYYCQVYGASSYTFGQGTKLERKR
For B1, the binding [1] was “no binding (tested: 100 nM)” and the binding [2] was “no binding”.

Reference: US20250073347A1
